Measurements published in PubChem BioAssay AID2685 (National Center for Advancing Translational Sciences (NCATS), 2010).
Some of the results follow. These are further read-outs of the screen, such as a control signal, another cell line or another target. No call is given for them. The list favours compounds with an active or inconclusive main result. The note in brackets gives the kind of curve behind each potency; many fits are weak.

Test: qHTS Assay for Lipid Storage Modulators in Drosophila S3 Cells;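 on cell number change: cells counted by Cell Tracker Red CMTPX staining in the red channel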
Conditions: BODIPY lipid droplet fluorescence, 18-24 h; for cell number change: measured here: cell count max response, cells fed with added oleic acid
In short: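 Laser-scanning cytometry quantifies lipid droplet accumulation (500–530 nm total intensity; droplet/cell object ratio) in oleic acid-fed (400 uM added) Drosophila S3 cells treated with a concentration series. 20 uM Triacsin C defined 100% inhibition.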

[1] = measured here: lipid fluorescence (Fed channel) AC50, cells fed with added oleic acid
[2] = measured here: cell number channel AC50, cells fed with added oleic acid

Row | Structure (SMILES) | cell number change [%] | AC50 [1] | AC50 [2]
1 | CC1CCN(Cc2ccc(NC(=O)C3CCN(c4nnc(-n5cccc5)s4)CC3)cc2)CC1 | -20.2 | 0.58 µM [falling, single point] | –
2 | COc1cccc(CCc2nnc(CCC(=O)NC(C)Cc3cccs3)o2)c1 (configuration not stated) | -17.4 | 7.31 µM [falling, partial curve] | –
3 | O=C(NCC1CCCO1)c1ccc[nH]1 (configuration not stated) | -25.9 | 3.66 µM [falling, full curve] | –
4 | CCSc1nsc(NC(=O)Nc2ccccc2OC)n1 | -10.5 | 29.1 µM [falling, single point] | –
5 | Cc1nc(N2CCN(C(=O)c3ccc(Cl)cc3)CC2)c(C#N)c2c1COC(C)(C)C2 | -11.1 | 18.4 µM [rising, partial curve] | –
6 | S=c1[nH]nc(-c2ccc(Cl)cc2)n1/N=C/c1cccs1 | -30.6 | 29.1 µM [falling, single point] | 20.6 µM [falling, partial curve, poor fit]
7 | COc1ccc(C(=O)c2c[nH]c(C(=O)NCc3cccs3)c2)cc1 | 12.3 | – | –
8 | COn1c(-c2ccccc2)nc2c1CCc1nonc1-2 | 10.5 | – | –
9 | O=C1OCCC1Sc1nnc(-c2cccs2)n1Cc1ccccc1 (configuration not stated) | 7.41 | – | –
10 | O=C(NCc1ccccn1)NC12CC3CC(CC(C3)C1)C2 | – | 0.461 µM [falling, single point] | –
11 | COc1ccc(CCN2CNc3c(c(=O)n(C)c(=O)n3C)C2)cc1OC | 2.28 | – | –
12 | Cc1oc2nc(SCC(=O)Nc3ccc(S(N)(=O)=O)cc3)nc(NC(=O)c3ccccc3)c2c1C | -82.2 | 29.1 µM [falling, single point] | –
13 | Cc1cc(S(=O)(=O)NCc2ccccc2)ccc1OCC(=O)NCc1ccccn1 | – | 7.31 µM [falling, partial curve] | –
14 | CCCN(CC(=O)NC(=O)NC1CCCCC1)CC(=O)Nc1cc(Cl)ccc1Cl | -42.9 | 20.6 µM [falling, partial curve, poor fit] | 32.6 µM [falling, partial curve]
15 | CCCn1c(CNC(=O)Cc2ccccc2)nc2ccccc21 | – | 0.116 µM [falling, full curve, poor fit] | –
16 | Cc1ccc(N2CC(C(=O)Nc3ccc(N4CCOCC4)cc3)CC2=O)cc1C (configuration not stated) | -4.2 | 0.184 µM [rising, partial curve, poor fit] | –
17 | CCN(Cc1ccccc1)C(=O)CC(=O)N(CC)Cc1ccccc1 | -10.3 | 29.1 µM [rising, single point] | –
18 | Cc1cccc(N2CCN(c3nc(C)cc(C)c3C#N)CC2C)c1 (configuration not stated) | -10.8 | – | –
19 | CCC(CC)C(=O)Nc1cccc(C(=O)N2CCCCCC2)c1 | -6.83 | – | –
20 | CCOc1ccc(C(=O)NCC(=O)N2CCN(c3ccccc3O)CC2)cc1 | -14.3 | – | –
21 | CC1CCN(C(=O)/C(=C/c2ccccc2Cl)c2ccccc2)CC1 | -31.8 | 6.51 µM [falling, single point] | 4.61 µM [falling, full curve, poor fit]

Row | Structure (SMILES) | cell number change [%] | AC50 [1] | AC50 [2]
22 | COc1ccc(-c2c(-c3ccccc3OC)sc3ccccc23)cc1OC | 21.4 | – | –
23 | COc1ccc(CNC(=O)COC(=O)c2n[nH]c3ccccc23)cc1OC | -16.5 | 14.6 µM [falling, single point] | –
24 | COCc1nnc(NC(=O)C2CC(=O)N(C3CCCCC3)C2)s1 (configuration not stated) | 13.4 | 29.1 µM [rising, single point] | –
25 | Cc1cc(SCC(=O)Nc2ccccc2C)nc(C)n1 | 58.4 | – | 16.4 µM [rising, single point]
26 | Cc1ccc(S(=O)(=O)Nc2nc3ccccc3nc2N2CCc3ccccc3C2)cc1 | -41.1 | 6.51 µM [falling, partial curve] | 11.6 µM [falling, partial curve, poor fit]
27 | CC(=O)Nc1ccc(OCC(O)Cn2c(C)nc3ccccc32)cc1 (configuration not stated) | -38.9 | 29.1 µM [falling, single point] | 29.1 µM [falling, single point]
28 | CCN1CCN(CCCNC(=O)CNC(=O)c2nn(-c3ccc(OC)cc3OC)c(=O)c3ccccc23)CC1 | 21.4 | 29.1 µM [rising, single point] | –
29 | CCCc1cc(C(=O)Nc2cc(C)on2)no1 | -7.44 | 8.2 µM [falling, partial curve, poor fit] | –
30 | O=C(CCNS(=O)(=O)c1ccccc1)N1CCC(Cc2ccccc2)CC1 | 9.25 | – | –
31 | O=C(c1ccc2[nH]c3c(c2c1)CCCC3)N1CCN(c2ccc(F)cc2)CC1 | 0.999 | 3.26 µM [rising, single point] | –
32 | Cc1ccc(-c2nc(COC(=O)C3=NN(c4ccccc4)C(=O)CC3)cs2)cc1 | -1.68 | 14.6 µM [rising, partial curve] | –
33 | CCOCCCNC(=S)Nc1ccc(S(N)(=O)=O)cc1 | -0.705 | 3.26 µM [rising, single point] | –
34 | O=C(COC(=O)c1cccc(S(=O)(=O)NCc2ccccc2)c1)NCC1CCCO1 (configuration not stated) | – | 6.51 µM [rising, partial curve, poor fit] | –
35 | O=C(NCc1ccco1)C1CC(=O)N(c2cccc(Cl)c2)C1 (configuration not stated) | -7.89 | – | –
36 | Cc1ccccc1N1CC(C(=O)Nc2ccc(S(=O)(=O)N3CCOCC3)cc2)CC1=O (configuration not stated) | -7.69 | – | –
37 | COc1ccc(S(=O)(=O)N2CCCCCC2)cc1C(=O)N(C)Cc1ccc(C(C)(C)C)cc1 | -24.4 | 7.31 µM [falling, partial curve] | –
38 | Cc1ccc(N(C(=O)CNC(=O)c2ccco2)C(C(=O)NC2CCCCC2)c2ccncc2)cc1F (configuration not stated) | 9.57 | 6.51 µM [rising, single point] | –
39 | COCc1cc(=O)oc2cc(NC(=O)c3ccc(C(C)(C)C)cc3)ccc12 | -20.8 | – | –
40 | COC(=O)Cc1ccc(NC(=S)NCCSc2ccc(C)cc2)cc1 | -27.4 | – | 0.92 µM [rising, full curve, poor fit]
41 | COc1ccc(N2CCN(C(=O)CCNS(=O)(=O)c3ccccc3)CC2)cc1 | 35.2 | – | –
42 | O=C(NC(CC(=O)N1CCN(c2ccc([N+](=O)[O-])cc2)CC1)c1ccccc1)c1ccccc1Cl (configuration not stated) | -5.11 | 0.103 µM [rising, full curve, poor fit] | –

Quoted at random: 3 entries already listed
Row | Structure (SMILES) | cell number change [%] | AC50 [1] | AC50 [2]
41 | COc1ccc(N2CCN(C(=O)CCNS(=O)(=O)c3ccccc3)CC2)cc1 | 35.2 | – | –
22 | COc1ccc(-c2c(-c3ccccc3OC)sc3ccccc23)cc1OC | 21.4 | – | –
40 | COC(=O)Cc1ccc(NC(=S)NCCSc2ccc(C)cc2)cc1 | -27.4 | – | 0.92 µM [rising, full curve, poor fit]
